Experimental data from article PMC12120709.
These are yes or no findings as the source states them, for the method shown. In cells and extracts the contact can be indirect. Some binding calls cover weakened binding; strength is not graded here.

Sequences of proteins named here, by UniProt entry; tags and fusion partners are left off. Residues count along the entry.
UniProt P09055, residues 21-798: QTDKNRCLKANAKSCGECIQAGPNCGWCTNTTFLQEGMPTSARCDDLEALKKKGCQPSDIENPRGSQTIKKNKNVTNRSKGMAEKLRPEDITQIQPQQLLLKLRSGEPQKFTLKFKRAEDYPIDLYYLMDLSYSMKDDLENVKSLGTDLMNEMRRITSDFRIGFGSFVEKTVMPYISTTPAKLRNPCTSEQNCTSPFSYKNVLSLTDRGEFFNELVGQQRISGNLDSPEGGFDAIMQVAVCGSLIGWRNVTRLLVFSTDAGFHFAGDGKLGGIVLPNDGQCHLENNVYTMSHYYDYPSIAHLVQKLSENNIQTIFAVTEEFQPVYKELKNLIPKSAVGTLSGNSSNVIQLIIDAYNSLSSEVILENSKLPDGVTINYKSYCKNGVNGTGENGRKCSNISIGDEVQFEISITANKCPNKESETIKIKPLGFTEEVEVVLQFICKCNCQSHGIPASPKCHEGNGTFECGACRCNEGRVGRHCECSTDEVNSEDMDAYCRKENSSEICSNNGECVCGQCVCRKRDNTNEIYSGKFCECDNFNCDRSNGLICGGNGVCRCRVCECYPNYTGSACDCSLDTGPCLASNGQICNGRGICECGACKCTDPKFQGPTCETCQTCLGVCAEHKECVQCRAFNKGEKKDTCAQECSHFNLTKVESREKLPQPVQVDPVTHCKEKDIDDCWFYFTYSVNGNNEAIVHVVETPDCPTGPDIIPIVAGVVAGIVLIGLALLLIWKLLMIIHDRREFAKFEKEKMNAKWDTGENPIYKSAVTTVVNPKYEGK

Experiments:
[1] = biological target: T1, vinculin (mouse (endogenous in C2C12)) (UniProt Q64727); test: co-IP; C2C12 cells on rigid PAAm hydrogels without or with boron (1.47 mM) for 24 h; lysate (2 mg) on antibodies against β1 integrin or vinculin conjugated to protein A or G Dynabeads; immunoblot for NaBC1
T1 sequence: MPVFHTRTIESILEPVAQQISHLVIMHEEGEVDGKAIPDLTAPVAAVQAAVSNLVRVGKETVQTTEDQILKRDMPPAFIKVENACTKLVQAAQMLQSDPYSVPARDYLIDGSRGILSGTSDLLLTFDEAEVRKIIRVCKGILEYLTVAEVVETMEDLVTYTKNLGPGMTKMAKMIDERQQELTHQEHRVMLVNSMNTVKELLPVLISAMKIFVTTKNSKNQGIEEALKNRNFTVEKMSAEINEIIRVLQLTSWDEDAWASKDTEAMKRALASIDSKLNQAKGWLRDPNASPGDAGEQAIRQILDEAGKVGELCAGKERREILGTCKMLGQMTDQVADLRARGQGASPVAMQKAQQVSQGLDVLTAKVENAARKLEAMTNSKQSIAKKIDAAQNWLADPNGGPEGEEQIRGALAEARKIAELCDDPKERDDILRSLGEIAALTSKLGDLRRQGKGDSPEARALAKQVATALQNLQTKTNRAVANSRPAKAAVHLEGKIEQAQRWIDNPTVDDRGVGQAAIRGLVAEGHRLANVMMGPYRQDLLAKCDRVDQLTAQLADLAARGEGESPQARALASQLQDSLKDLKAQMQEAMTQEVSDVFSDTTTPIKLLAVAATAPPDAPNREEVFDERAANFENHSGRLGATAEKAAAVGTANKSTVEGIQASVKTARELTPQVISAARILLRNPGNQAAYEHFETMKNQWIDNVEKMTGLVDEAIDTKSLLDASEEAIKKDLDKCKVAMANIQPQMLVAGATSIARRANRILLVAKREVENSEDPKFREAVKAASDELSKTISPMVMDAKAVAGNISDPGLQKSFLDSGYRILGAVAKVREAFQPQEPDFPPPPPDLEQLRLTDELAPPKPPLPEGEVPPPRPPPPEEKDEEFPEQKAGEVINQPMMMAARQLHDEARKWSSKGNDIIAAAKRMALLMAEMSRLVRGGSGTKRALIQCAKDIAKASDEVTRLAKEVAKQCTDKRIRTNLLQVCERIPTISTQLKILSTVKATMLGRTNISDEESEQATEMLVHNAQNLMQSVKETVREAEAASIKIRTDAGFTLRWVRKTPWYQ

[2] = biological target: β1 integrin (mouse (endogenous in C2C12)) (UniProt P09055); test: as above

binding [1]: binds
binding [2]: binds
B1: NaBC1 boron transporter (protein, UniProt A2AJN7 1-862)
chain: MSQNEHCQDSGEYFSAGTQGYFKNNMEDNLEVREDSLGDEVFDTVNSSIVSGESIRFFVNVNLEVQPSKSDLEAATGGCVLLHTSRKYLKLKNFEEEVRAHRDLDGFLAQASIILNETATSLDDVLRTMLNRFALDPNHAEPDCDLDLLMAKLFTDAGAPMESKVHLLSDTIQGVTATVRGVQYEQSWLCIICTMKTLQKRHVCISRLVRPQNWGENSCEVRFVILVLAPPKMKSTKTAMEVARTFATMFSDITFRQKLLKTRTEEEFKEALVHQRQLLTMMMPRAAGHSMSSLHTHRHPQPPKCKDFFPFGKGIWMDIMRRFPVYPMDFTDGIIGKSKSVGKYVTTTLFLYFACLLPTIAFGSLNDENTNGAIDVQKTIAGQSIGGLLYALFSGQPLVILLTTAPLAIYTQVIRVICDDYNLDFNAFYAWTGLWNSFFLALYAFLNLSLLMNLFKRSTEEIIALFISITFVLDAVKGMVKIFGKYYYGHHYHTKRTSSLVSLLGIGRSPNSSLHTALNASLLASPVEMATTSSPGSTHSGQATAVLSLLIMLGTLWLGYTLYQFKKSPYLHPCVRETLSDCALPIAVLSFSLIGSYGFQEIEMSKFRYNPSESLFEVAQIHSLSFKAIGSAMGLGFLLSLLFFIEQNLVAALVNAPENRLVKGTAYHWDLLLLAIINTGLSLFGLPWIHAAYPHSPLHVRALALVEERVENGHIYETIVDVKETRLTALGASVLVGLSLLLLPFPLQWIPKPVLYGLFLYIALTSLDGNQLFSRVALLLKEQTSYPPTHYIRRVPQRKIHYFTGLQILQLLLLCAFGMSSLPYMKMVFPLIMIAMIPIRYNLLPRIIEAKYLDVMDAEHRP
